Results on 1 substance are retold here after patent US6593098.

The chains behind the UniProt entries cited, without tags or fusion partners. Where a name states a change or a piece, a line headed by the entry shows the natural chain unless it says otherwise.
UniProt O43683: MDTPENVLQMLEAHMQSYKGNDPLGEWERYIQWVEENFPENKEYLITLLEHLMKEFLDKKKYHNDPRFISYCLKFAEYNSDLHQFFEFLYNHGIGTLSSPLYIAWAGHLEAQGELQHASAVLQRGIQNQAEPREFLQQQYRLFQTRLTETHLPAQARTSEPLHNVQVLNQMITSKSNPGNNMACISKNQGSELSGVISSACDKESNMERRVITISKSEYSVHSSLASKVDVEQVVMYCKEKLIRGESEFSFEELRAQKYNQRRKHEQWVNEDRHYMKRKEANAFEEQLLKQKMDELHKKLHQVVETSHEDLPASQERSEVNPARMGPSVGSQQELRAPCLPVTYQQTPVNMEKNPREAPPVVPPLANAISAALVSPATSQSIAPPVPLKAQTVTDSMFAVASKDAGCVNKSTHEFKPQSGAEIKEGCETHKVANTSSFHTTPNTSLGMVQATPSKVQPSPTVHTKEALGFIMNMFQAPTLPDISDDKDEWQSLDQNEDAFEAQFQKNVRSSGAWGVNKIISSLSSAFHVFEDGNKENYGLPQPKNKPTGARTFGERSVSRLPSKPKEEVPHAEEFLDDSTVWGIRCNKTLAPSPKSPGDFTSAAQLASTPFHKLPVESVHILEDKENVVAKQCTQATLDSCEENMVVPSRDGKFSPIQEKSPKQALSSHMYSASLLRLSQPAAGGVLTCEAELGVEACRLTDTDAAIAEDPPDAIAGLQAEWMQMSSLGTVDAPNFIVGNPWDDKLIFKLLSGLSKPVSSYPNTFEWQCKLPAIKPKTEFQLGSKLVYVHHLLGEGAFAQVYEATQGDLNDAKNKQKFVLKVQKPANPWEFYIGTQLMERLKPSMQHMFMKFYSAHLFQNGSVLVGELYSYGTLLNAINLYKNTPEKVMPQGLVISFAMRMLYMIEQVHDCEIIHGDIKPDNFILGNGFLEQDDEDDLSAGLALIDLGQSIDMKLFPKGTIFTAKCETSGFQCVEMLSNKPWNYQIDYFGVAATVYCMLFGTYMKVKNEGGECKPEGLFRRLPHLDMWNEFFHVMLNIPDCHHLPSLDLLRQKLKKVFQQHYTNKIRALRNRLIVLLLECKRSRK

The target in the experiment is T1, CENP-F (UniProt P49454).
T1 sequence (looked up): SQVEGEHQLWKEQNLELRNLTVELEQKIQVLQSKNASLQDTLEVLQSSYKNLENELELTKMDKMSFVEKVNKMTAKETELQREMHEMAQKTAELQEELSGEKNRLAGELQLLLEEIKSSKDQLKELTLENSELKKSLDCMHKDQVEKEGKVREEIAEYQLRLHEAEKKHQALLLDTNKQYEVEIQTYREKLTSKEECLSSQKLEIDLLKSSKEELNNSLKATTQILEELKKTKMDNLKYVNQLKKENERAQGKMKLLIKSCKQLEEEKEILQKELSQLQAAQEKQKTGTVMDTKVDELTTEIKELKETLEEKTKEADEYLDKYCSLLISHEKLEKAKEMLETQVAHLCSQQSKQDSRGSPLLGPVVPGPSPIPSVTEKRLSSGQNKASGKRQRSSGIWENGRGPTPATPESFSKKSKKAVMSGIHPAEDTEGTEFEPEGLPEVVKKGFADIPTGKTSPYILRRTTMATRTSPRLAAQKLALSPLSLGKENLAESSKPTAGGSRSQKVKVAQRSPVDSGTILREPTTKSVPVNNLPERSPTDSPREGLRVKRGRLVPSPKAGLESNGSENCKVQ
The experiment can be described thus: specificity test, method not named in the sentence (probably yeast two-hybrid).

These are yes or no findings as the source states them, for the method shown. Some binding calls cover weakened binding; strength is not graded here.

For “human BUB1B kinase (from UniProt O43683 1-1085) (enzyme)”, the binding result is “binds”.
